The experiment in a line: isolated mitochondria fluorescence counter-assay – biochemical, uHTS hits, counter-screen for MPTP inhibitor project, dose response (AID 651564). Conditions: isolated mitochondria counterscreen, fluorescence read-out. For orientation: Counterscreens check selectivity or assay interference.

Shown are results outside the selection of hits, which stands elsewhere. Calls of active or inactive are those of the source. Rule as the data show it: active = IC50 below about 80 µM; inactive = the rest.

For the molecule `CNCCCC12CCC(c3ccccc31)c1ccccc12`, the IC50 (commonly the concentration that gives 50% inhibition) was inactive: > 80 µM.

The record behind these values is PubChem BioAssay AID651564 (Sanford-Burnham Center for Chemical Genomics, 2012).
